In patent US5962418A, “Factor VII-derived peptides” (Nycomed Imaging A/S, priority 1993, dated 1999):
At least one compound was matched to its structure with a doubt left. Where a SMILES comes first, the peptide text is derived from it. Bridges are numbered along the chain shown (N, C = ends).

The chains behind the UniProt entries cited, without tags or fusion partners. Residues count along the entry.
UniProt P13726, 33-295: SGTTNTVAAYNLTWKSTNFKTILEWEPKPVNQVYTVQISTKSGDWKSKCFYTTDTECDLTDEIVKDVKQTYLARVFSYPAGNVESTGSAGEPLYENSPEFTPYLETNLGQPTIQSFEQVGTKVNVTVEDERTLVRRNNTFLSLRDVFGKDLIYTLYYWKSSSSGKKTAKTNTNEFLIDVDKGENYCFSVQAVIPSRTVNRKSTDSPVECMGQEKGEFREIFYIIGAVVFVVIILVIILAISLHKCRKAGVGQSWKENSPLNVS

Key:
[1] = target: T1, purified human FVIIa bound to recombinant human TF (apoTF/FVIIa) (Homo sapiens, UniProt P13726); assay: Assay of apoTF/FVIIa catalytic (amidolytic) activity; assay type: biochemical; conditions: read-out: IC50, Amidolytic apo TF Assay
T1 construct: purchased American Diagnostica (TF); Enzyme Research Laboratories (FVIIa) 4500 (TF); HFVlla (FVIIa)
Method: Assay of apoTF/FVIIa Catalytic Activity
This […] assay was used to measure directly the amidolytic (catalytic) activity of purified human FVIla when bound to recombinant human TF in the absence of phospholipid.
Reactions were performed in microtitre plate wells, using a final incubation volume of 200 uL. Test compounds, dissolved in water, (final concentration, 0-1 mM) were preincubated with recombinant human tissue factor (American Diagnostica, cat# 4500; 5 nM) and CaCl2 (5 mM) in Tris buffer (100 mM), pH 7.2, containing NaCl (150 mM) and BSA (1 mg/mL) at ambient temperature for 30 minutes. Factor Vlla (Enzyme Research Laboratories, cat# HFVlla; 5 nM) was added and the incubations continued for 60 minutes. Chromogenic substrate, S2288 (Chromogenix cat# 820852; 0.5 mM) was then added and the enzymatic activity of the tissue factor apoprotein/factor VII complex (apoTF/FVlla) was monitored at 405 nm.

[2] = target: FVII binding to immobilized rTF (Homo sapiens, UniProt P13726); assay: ELISA assay of inhibition of FVII binding to immobilized rTF
Method: FIG. 13 ELISA assay of the inhibition of FVII binding to immobilized rTF produced by synthetic FVII peptides (all at 0.5 mM). For peptide sequences see the table of peptides below (page 19). C and L denote the cyclic and linear forms respectively of peptides with terminal cysteines.
The inhibition results shown in FIG. 13 indicate that in addition to sequences from the "hinge" region (i.e. residues 41-48 between the GLA domain and the first EGF domain, […]) and from the first EGF domain itself (i.e. residues 50-61; Clarke et al), there exist additional sequences in the second EGF domain (especially 95-104) which are inhibitors when presented as peptides in this binding assay.

[3] = target: T2, tissue factor (TF) expressed on the surface of living cells (Homo sapiens, UniProt P13726); assay: Assay of cell-surface TF initiated coagulation of plasma (microcarrier coagulation assay); assay type: cell-based
T2 construct: induced by tissue factor (TF) expressed on the surface of living cells; endogenous in cells; host or cells: living cells on Cytodex-3 microcarriers (e.g. human HT-1080 or ECV-304)
Method: FIGS. 9A-9C Principle of the microcarrier assay of cell-surface mediated coagulation of blood plasma. Living cells (e.g., human HT-1080 fibrosarcoma; ATCC CRL 121) adherent on the surface of microcarriers are mixed with a calcium-containing buffer and plasma in the incubation well of a Thrombotrack™ electromagnetic coagulometer (Nycomed). The clotting time is measured by the increase in resistance to movement of a magnetic ball produced by the formation of fibrin fibres. HT-1080 cells adherent on Cytodex-3 microcarriers are shown in FIG. 9C as an example of the types of cells expressing TF which may be used.
Assay of Cell-surface TF Initiated Coagulation of Plasma
A novel assay system has been devised to measure the coagulation of blood plasma (i.e. clotting time) induced by tissue factor (TF) expressed on the surface of living cells. This assay makes use of human or animal cells adherent on the surface of microcarriers (see FIG. 9), which enables reproducible presentation of known amounts of TF activity in the stirred measuring well of an electromagnetic coagulometer. […]
To assay the extrinsic coagulation activity, the microcarrier cell preparations are first washed with a calcium-free buffer to remove bound serum factors. A calcium-containing buffer and plasma are then added and the clotting time is determined automatically in an electromagnetic coagulometer. […]

Compound: CC(C)[C@@H]1NC(=O)[C@@H](N)CSSC[C@@H](C(=O)O)NC(=O)[C@H](Cc2ccc(O)cc2)NC(=O)[C@H](CCC(N)=O)NC(=O)[C@H](CCC(=O)O)NC(=O)[C@H](CS)NC(=O)CNC(=O)CNC(=O)[C@H](CC(N)=O)NC(=O)[C@H](CCC(=O)O)NC(=O)[C@H](CC(N)=O)NC1=O [91-102(C)] (H-CVNENGGCEQYC-OH; disulfide 1-12 (inferred))
- IC50 [1]: 600 µM
- IC50 [2]: 40 µM
- IC50 [3]: 580 µM
